Experimental data taken from PMC11998489.
No constants are given. Whether binding was seen depends on the method and setting. A result given as binding can be weak or reduced; the word gives no strength. For part of these data: Binding seen in cells or lysates may run through a third protein. For part of these data: Sequences can lack the tags named with a protein.

Chains of the proteins cited; added tags and fusions are not shown.
UniProt P16709: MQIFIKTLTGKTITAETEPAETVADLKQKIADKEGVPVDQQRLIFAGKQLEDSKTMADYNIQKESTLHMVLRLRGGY

What was measured:
[1] = target: Vps4-HA-Nm (S. frugiperda) (UniProt G3LZX7); experiment: split reporter; mCherry BiFC (Nm and Cm fusions) in Sf9 cells transfected with a pair of plasmids (2 ug/well each); 36 h p.t.; epifluorescence microscopy; percentage of fluorescent cells in each field
Vps4 (S. frugiperda) = Vps4 (S. frugiperda) (UniProt G3LZX7); experiment: two-hybrid; Y2H screen with Vps4 or Vta1 as the bait and 14 BV envelope proteins of AcMNPV as the prey; growth on QDO (SD/-Ade/-His/-Leu/-Trp)
Ac35 (vUbi) (AcMNPV) = Ac35 (vUbi) (AcMNPV) (UniProt P16709); experiment: two-hybrid; Y2H with the viral proteins as the bait and Vps4 or Vta1 as the prey (extended Fig. S4)
Ac92 (P33) (AcMNPV) = target: T1, Ac92 (P33) (AcMNPV) (UniProt P41480); experiment: as above
T1 sequence: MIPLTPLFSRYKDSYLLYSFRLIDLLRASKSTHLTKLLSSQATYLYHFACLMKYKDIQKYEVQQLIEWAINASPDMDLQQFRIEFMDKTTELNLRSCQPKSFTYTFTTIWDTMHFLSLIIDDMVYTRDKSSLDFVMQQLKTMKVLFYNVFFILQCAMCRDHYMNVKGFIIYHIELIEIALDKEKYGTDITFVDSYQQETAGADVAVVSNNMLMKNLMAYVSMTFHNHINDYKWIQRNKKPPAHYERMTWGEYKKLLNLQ

Vta1 (S. frugiperda) = experiment: two-hybrid; Y2H screen with Vps4 or Vta1 as the bait and 14 BV envelope proteins of AcMNPV as the prey; growth on QDO (SD/-Ade/-His/-Leu/-Trp)
[2] = target: Nm-HA-Vta1 (S. frugiperda); experiment: split reporter; mCherry BiFC (Nm and Cm fusions) in Sf9 cells transfected with a pair of plasmids (2 ug/well each); 36 h p.t.; epifluorescence microscopy; percentage of fluorescent cells in each field

In the case of “Ac35 (vUbi) (BiFC fusion) (from UniProt P16709 1-77)”, the binding [1] is reported as “binds weakly”.

Ac35 (vUbi) (from UniProt P16709 1-77) was tested, and the binding (Vps4 (S. frugiperda)) was “binds”.

With Vps4 (from UniProt G3LZX7) (enzyme) the binding (Ac35 (vUbi) (AcMNPV)) was “binds”.

In the case of Vta1 (S. frugiperda), the binding (Ac92 (P33) (AcMNPV)) is reported as “binds”.

B1: Ac92 (P33) (protein, UniProt P41480 1-259)
chain: T1 sequence
With B1 the binding (Vta1 (S. frugiperda)) was “binds”.

B2: Ac92 (P33) (BiFC fusion) (protein, UniProt P41480 1-259)
chain: T1 sequence
In the case of B2, the binding [2] is reported as “binds weakly”.
